The supplement of paper PMC10849652
This is one part of the list.

Sequences of proteins named here, by UniProt entry; tags and fusion partners are left off. A change or cut given only in a name is not applied to a line headed by its entry.
UniProt Q96GU1: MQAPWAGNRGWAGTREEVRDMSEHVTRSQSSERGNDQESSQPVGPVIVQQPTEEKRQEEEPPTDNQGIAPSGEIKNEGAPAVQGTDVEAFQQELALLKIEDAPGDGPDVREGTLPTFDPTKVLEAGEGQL
UniProt O00764: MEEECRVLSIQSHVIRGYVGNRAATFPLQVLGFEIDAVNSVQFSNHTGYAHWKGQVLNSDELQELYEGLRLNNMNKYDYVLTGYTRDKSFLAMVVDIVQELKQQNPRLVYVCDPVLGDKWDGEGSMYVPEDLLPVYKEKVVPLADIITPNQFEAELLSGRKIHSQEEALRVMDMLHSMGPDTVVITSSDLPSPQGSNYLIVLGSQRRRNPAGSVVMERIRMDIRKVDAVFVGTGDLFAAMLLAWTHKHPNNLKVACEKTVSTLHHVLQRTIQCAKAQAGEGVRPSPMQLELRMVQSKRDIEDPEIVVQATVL
UniProt Q9NVE7: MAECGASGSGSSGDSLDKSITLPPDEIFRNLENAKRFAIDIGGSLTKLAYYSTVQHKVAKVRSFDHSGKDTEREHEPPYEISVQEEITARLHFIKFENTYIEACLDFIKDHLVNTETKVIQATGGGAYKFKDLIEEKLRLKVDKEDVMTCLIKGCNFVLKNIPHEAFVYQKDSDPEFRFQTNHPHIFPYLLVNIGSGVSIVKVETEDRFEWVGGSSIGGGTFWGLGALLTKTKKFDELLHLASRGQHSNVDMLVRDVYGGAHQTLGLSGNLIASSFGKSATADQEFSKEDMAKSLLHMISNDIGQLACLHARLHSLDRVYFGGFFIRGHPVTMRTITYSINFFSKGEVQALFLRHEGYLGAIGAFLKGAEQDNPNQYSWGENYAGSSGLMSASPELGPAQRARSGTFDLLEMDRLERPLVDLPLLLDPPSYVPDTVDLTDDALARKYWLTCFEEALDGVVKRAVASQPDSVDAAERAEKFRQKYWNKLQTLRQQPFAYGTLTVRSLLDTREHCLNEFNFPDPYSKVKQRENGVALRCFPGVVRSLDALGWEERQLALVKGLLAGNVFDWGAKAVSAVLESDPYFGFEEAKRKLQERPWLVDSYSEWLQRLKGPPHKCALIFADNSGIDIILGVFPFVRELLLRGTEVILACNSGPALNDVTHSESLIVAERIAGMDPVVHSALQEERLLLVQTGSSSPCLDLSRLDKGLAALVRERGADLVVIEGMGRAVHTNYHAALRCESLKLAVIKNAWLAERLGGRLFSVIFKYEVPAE
UniProt Q9NP74: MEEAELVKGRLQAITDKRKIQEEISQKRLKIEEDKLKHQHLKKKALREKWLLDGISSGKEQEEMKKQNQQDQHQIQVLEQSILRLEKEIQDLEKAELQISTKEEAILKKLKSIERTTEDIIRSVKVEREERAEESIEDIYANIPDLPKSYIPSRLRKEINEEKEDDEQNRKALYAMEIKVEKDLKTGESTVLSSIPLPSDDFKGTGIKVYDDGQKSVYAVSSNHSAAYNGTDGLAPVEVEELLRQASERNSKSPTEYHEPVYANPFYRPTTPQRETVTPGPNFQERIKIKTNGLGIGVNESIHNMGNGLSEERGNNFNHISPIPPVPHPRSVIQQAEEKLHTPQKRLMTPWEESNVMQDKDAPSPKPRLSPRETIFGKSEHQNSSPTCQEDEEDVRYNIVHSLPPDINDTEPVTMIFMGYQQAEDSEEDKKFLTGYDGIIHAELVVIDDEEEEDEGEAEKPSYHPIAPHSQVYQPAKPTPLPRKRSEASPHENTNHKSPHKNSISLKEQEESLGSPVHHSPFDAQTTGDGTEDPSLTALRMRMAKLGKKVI
UniProt O00330, whole entry, looked up: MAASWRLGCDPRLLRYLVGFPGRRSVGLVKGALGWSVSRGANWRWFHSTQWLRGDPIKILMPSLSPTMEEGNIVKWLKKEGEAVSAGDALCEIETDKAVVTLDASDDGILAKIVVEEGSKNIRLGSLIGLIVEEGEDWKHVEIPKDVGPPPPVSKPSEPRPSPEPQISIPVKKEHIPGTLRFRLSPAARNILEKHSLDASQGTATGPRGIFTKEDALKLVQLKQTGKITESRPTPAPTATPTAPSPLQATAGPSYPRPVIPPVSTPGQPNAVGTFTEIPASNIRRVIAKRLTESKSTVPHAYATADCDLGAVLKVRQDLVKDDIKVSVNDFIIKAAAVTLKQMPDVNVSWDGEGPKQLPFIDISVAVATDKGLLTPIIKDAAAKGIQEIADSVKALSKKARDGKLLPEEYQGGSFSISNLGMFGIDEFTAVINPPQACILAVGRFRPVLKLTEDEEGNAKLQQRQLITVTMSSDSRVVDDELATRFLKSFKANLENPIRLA
UniProt O75381, whole entry, looked up: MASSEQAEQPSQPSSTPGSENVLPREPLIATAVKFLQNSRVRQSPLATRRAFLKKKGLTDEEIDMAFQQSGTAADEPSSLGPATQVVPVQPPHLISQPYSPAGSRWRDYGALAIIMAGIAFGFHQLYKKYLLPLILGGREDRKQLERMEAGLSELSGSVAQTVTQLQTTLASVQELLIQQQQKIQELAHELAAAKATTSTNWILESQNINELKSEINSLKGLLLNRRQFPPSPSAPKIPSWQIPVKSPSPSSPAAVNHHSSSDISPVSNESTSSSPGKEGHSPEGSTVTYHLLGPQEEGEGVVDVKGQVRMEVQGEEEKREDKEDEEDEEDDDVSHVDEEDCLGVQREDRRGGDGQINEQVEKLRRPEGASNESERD
UniProt P30101, whole entry, looked up: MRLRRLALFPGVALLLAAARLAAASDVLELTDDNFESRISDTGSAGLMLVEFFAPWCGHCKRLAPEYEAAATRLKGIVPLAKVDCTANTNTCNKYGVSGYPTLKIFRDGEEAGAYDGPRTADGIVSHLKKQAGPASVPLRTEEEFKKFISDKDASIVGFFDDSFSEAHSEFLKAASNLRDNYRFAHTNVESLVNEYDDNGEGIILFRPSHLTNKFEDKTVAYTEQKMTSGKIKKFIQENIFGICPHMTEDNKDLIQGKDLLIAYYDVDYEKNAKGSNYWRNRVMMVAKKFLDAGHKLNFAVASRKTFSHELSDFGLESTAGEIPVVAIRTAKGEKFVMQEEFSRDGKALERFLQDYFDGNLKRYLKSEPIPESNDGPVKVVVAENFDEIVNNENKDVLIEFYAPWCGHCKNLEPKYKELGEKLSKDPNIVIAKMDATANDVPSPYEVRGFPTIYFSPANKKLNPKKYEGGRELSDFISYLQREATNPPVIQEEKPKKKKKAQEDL
UniProt Q9HBH1: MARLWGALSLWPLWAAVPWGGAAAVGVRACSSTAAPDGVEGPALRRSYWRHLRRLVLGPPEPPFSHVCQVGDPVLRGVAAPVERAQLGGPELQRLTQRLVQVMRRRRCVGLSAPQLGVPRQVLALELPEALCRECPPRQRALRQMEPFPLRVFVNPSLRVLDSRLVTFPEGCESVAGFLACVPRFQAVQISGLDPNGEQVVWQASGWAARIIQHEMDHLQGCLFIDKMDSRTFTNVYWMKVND
UniProt Q9NWT1: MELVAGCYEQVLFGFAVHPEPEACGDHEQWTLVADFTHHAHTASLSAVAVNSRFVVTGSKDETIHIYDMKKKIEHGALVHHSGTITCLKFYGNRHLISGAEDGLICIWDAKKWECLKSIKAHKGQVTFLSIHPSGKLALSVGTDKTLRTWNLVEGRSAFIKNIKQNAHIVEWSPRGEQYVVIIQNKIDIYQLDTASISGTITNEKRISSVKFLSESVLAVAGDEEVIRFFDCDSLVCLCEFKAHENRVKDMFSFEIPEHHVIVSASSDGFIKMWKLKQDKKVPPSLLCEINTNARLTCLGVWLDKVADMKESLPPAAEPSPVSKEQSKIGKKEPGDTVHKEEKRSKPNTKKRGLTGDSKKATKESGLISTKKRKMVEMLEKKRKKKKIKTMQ
UniProt P22061: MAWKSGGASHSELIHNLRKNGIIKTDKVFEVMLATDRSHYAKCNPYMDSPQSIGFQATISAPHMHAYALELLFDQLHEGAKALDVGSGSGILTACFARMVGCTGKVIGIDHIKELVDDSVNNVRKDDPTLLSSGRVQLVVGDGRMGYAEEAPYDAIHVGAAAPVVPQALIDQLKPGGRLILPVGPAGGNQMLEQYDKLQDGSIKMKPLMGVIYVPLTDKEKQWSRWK
UniProt H7BZJ3: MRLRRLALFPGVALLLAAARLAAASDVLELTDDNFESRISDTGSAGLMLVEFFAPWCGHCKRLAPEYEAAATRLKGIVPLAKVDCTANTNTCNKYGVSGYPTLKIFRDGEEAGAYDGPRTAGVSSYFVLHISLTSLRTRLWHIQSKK
UniProt Q9HBI1: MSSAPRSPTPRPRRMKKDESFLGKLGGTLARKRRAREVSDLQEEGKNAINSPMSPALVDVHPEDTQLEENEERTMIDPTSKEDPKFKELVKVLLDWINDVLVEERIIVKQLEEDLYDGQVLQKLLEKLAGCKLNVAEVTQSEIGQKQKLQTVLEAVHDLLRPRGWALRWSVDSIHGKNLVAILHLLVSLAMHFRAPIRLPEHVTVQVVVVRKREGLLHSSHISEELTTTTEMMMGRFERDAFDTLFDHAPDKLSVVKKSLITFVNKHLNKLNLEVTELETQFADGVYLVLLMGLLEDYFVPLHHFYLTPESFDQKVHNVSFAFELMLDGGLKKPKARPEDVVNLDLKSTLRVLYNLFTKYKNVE
UniProt Q96RG2: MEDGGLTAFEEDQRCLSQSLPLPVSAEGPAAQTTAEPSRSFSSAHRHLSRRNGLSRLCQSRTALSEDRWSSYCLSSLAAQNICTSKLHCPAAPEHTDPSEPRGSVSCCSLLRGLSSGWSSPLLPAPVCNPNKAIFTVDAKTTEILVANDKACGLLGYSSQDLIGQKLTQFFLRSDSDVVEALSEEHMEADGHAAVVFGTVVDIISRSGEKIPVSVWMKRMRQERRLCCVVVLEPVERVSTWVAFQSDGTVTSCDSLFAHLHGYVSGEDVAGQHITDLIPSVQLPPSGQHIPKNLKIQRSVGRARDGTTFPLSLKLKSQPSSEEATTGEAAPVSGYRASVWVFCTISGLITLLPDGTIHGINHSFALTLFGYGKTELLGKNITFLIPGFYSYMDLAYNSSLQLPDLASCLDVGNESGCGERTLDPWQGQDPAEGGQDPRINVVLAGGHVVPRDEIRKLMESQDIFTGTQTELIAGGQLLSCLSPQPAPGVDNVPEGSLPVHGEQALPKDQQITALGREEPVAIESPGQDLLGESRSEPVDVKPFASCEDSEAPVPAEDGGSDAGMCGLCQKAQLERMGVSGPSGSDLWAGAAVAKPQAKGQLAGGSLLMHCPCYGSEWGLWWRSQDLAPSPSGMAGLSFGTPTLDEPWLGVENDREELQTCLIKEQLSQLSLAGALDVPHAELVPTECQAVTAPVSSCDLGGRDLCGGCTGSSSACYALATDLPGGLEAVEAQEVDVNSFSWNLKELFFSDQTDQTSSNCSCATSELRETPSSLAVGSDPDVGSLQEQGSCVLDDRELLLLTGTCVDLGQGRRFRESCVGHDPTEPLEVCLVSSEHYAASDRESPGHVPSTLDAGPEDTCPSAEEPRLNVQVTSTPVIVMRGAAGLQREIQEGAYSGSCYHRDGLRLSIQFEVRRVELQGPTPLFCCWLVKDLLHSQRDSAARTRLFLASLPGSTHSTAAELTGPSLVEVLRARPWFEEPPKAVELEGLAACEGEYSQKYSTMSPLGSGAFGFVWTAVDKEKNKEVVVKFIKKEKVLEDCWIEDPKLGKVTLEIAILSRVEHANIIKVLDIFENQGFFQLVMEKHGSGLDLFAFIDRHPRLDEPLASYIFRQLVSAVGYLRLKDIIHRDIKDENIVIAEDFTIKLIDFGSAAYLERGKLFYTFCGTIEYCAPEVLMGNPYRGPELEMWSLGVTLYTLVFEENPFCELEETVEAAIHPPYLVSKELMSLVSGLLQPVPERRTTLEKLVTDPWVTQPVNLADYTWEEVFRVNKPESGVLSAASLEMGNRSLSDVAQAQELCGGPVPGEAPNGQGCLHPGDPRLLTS
UniProt Q9H074: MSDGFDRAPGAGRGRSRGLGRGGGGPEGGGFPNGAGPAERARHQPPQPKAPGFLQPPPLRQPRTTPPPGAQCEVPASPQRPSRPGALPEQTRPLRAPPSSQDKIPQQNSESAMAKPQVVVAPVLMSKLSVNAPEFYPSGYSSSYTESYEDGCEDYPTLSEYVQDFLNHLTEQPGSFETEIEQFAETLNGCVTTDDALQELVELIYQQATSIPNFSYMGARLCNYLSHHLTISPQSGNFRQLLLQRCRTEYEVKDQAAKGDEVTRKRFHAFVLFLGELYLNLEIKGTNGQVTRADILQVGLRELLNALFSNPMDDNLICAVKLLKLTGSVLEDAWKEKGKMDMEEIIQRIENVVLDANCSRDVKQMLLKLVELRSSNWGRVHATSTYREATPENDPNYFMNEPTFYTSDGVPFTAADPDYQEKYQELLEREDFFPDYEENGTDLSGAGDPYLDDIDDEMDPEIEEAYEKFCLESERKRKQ
UniProt O75459: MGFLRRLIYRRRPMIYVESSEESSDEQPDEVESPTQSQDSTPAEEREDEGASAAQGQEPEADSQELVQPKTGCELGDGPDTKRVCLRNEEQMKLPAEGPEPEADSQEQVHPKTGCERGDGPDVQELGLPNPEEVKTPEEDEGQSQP

Experiments:
Experiment in all cases: log2 fold change, soluble protein after heating vs DMSO (PISA); higher = thermal stabilisation; K562 cells, 10 uM, 30 min; active = over 0.2 and 3.5 SD of the protein, either way, in both replicates (recomputed)
[1] = compound: CC[C@@H]1C(=O)N(C)c2cnc(Nc3ccc(C(=O)NC4CCN(C)CC4)cc3OC)nc2N1C1CCCC1
Summary of the method: (§1)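 Quantification of soluble protein used TMTpro 16plex LC-MS/MS, with channel sums equalised. Samples were the supernatant after 21,000xg for 90 min of pooled aliquots from K562 cells (2×10^6 cells/mL) treated with 10 μM compound for 30 min, heated for 3 min over 48°C-58°C, and extracted in PBS with 0.5% NP-40 at 4°C. Values, from duplicates, describe thermal stability against control samples on a log2 fold-change scale.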

volasertib = compound: CC[C@@H]1C(=O)N(C)c2cnc(Nc3ccc(C(=O)N[C@H]4CC[C@H](N5CCN(CC6CC6)CC5)CC4)cc3OC)nc2N1C(C)C [volasertib]
Summary of the method: as §1

[2] = compound: CC[C@H](C)N1C=C(C2=C(C=C(C=C21)C3=CN=C(C=C3)N4CCNCC4)C(=O)NCC5=C(C=C(NC5=O)C)C)C
Summary of the method: as §1

epoxomicin = compound: CC[C@H](C)[C@@H](C(=O)N[C@@H]([C@@H](C)O)C(=O)N[C@@H](CC(C)C)C(=O)[C@]1(CO1)C)NC(=O)[C@H]([C@@H](C)CC)N(C)C(=O)C [epoxomicin]
Summary of the method: as §1

[3] = compound: CCn1c(C(=O)N(C2CC2)C2CC2)cc2c3c(ncn3C)c(Nc3cc(C)n(C)n3)nc21
Summary of the method: as §1

[4] = compound: CCn1cc(-c2ccnc3[nH]c(-c4cccc(CN(C)C)c4)cc23)c(-c2ccc(NC(=O)N(C)C)cc2)n1
Summary of the method: as §1

[5] = compound: CN(C)CC(=O)Nc1ccc2[nH]c(=O)c3ccccc3c2c1
Summary of the method: as §1

rosiglitazone = compound: CN(CCOC1=CC=C(C=C1)C[C@H]2C(=O)NC(=O)S2)C3=CC=CC=N3 (racemic) [rosiglitazone]
Summary of the method: as §1

[6] = compound: CN1C2=C(C3=C1C(=O)N(N=C3)CC4=CC(=CC=C4)N)SC(=C2)S(=O)C
Summary of the method: as §1

[7] = compound: CN1CCC(CNc2ccc3ncc(-c4cccc(OC(F)(F)F)c4)n3n2)CC1
Summary of the method: as §1

saracatinib = compound: CN1CCN(CCOc2cc(OC3CCOCC3)c3c(Nc4c(Cl)ccc5c4OCO5)ncnc3c2)CC1 [saracatinib]
Summary of the method: as §1

sotrastaurin = compound: CN1CCN(c2nc(C3=C(c4c[nH]c5ccccc45)C(=O)NC3=O)c3ccccc3n2)CC1 [sotrastaurin]
Summary of the method: as §1

alvocidib = compound: CN1CC[C@H](c2c(O)cc(O)c3c(=O)cc(-c4ccccc4Cl)oc23)[C@H](O)C1 [alvocidib]
Summary of the method: as §1

Tubastatin A = compound: CN1CCc2c(c3ccccc3n2Cc2ccc(C(=O)NO)cc2)C1 [Tubastatin A]
Summary of the method: as §1

[8] = compound: CNC(=O)C1=CC=CC=C1NC2=NC(=NC=C2Cl)NC3=C(C=C(C=C3)N4CCOCC4)OC
Summary of the method: as §1

defactinib = compound: CNC(=O)c1ccc(Nc2ncc(C(F)(F)F)c(NCc3nccnc3N(C)S(C)(=O)=O)n2)cc1 [defactinib]
Summary of the method: as §1

rucaparib = compound: CNCc1ccc(-c2[nH]c3cc(F)cc4c3c2CCNC4=O)cc1 [rucaparib]
Summary of the method: as §1

[9] = compound: CNc1nc(-c2ccc3c(N)n[nH]c3c2)cc(N2C[C@@H](C(=O)NC3CCCCC3)CC[C@H]2C)n1
Summary of the method: as §1

encorafenib = compound: COC(=O)N[C@@H](C)CNc1nccc(-c2cn(C(C)C)nc2-c2cc(Cl)cc(NS(C)(=O)=O)c2F)n1 [encorafenib]
Summary of the method: as §1

[10] = compound: COC(=O)[C@H](CCSC)NC(=O)C1=C(C=C(C=C1)NC[C@H](CS)N)C2=CC=CC=C2
Summary of the method: as §1

Measured: log2 fold change

PAGE5 (UniProt Q96GU1)
inactive: [1] 0.128 | volasertib 0.097 | [2] -0.022 | epoxomicin 0.297 | [3] -0.077 | [4] 0.079 | [5] 0.354 | rosiglitazone 0.012 | [6] 0.002 | [7] 0.15 | saracatinib -0.014 | sotrastaurin 0.307 | alvocidib -0.044 | Tubastatin A 0.091 | [8] -0.004 | defactinib -0.014 | rucaparib 0.007 | [9] -0.073 | encorafenib -0.2 | [10] 0.4

PDXK (UniProt O00764)
inactive: [1] -0.138 | volasertib -0.03 | [2] -0.029 | epoxomicin 0.06 | [3] -0.005 | [4] -0.019 | [5] -0.015 | rosiglitazone -0.026 | [6] -0.076 | [7] -0.014 | saracatinib 0 | sotrastaurin 0.006 | alvocidib 0.027 | Tubastatin A 0.028 | [8] -0.013 | defactinib -0.007 | rucaparib -0.043 | [9] -0.019 | encorafenib 0.052 | [10] 0.048

PANK4 (UniProt Q9NVE7)
inactive: [1] 0.095 | volasertib -0.015 | [2] 0.031 | epoxomicin 0.058 | [3] -0.003 | [4] -0.106 | [5] -0.006 | rosiglitazone 0.206 | [6] -0.05 | [7] 0.038 | saracatinib 0.02 | sotrastaurin 0.154 | alvocidib -0.029 | Tubastatin A 0.001 | [8] 0.02 | defactinib 0.009 | rucaparib -0.032 | [9] -0.067 | encorafenib 0.013 | [10] -0.025

PALMD (UniProt Q9NP74)
inactive: [1] -0.07 | volasertib -0.043 | [2] -0.034 | epoxomicin -0.03 | [3] -0.023 | [4] -0.022 | [5] 0.033 | rosiglitazone -0.018 | [6] 0.01 | [7] 0.067 | saracatinib 0.045 | sotrastaurin 0.16 | alvocidib -0.114 | Tubastatin A 0.088 | [8] -0.026 | defactinib -0.07 | rucaparib 0.263 | [9] -0.032 | encorafenib -0.07 | [10] 0.072

PDHX (UniProt O00330)
inactive: [1] 0.071 | volasertib 0.3 | [2] -0.017 | epoxomicin -0.044 | [3] 0.073 | [4] 0.186 | [5] -0.021 | rosiglitazone -0.069 | [6] 0.174 | [7] 0.123 | saracatinib -0.246 | sotrastaurin -0.088 | alvocidib 0.151 | Tubastatin A 0.155 | [8] -0.003 | defactinib 0.236 | rucaparib 0.079 | [9] 0.049 | encorafenib 0.136 | [10] 0.026

PEX14 (UniProt O75381)
inactive: [1] 0.003 | volasertib 0.004 | [2] -0.007 | epoxomicin 0.042 | [3] -0.02 | [4] -0.001 | [5] -0.008 | rosiglitazone 0.007 | [6] -0.017 | [7] 0.056 | saracatinib 0.024 | sotrastaurin 0 | alvocidib 0.02 | Tubastatin A -0.023 | [8] -0.019 | defactinib 0.019 | rucaparib -0.076 | [9] -0.014 | encorafenib 0.022 | [10] -0.003

PDIA3 (UniProt P30101)
inactive: [1] -0.04 | volasertib 0.052 | [2] 0.039 | epoxomicin -0.034 | [3] 0.056 | [4] 0.039 | [5] -0.03 | rosiglitazone -0.007 | [6] 0.045 | [7] 0.139 | saracatinib -0.117 | sotrastaurin -0.08 | alvocidib 0.046 | Tubastatin A 0.004 | [8] 0.02 | defactinib 0.063 | rucaparib 0.017 | [9] 0.004 | encorafenib 0.095 | [10] -0.02

2 neighbouring records out of the list so far, quoted:
PDHX (UniProt O00330)
inactive: [1] 0.071 | volasertib 0.3 | [2] -0.017 | epoxomicin -0.044 | [3] 0.073 | [4] 0.186 | [5] -0.021 | rosiglitazone -0.069 | [6] 0.174 | [7] 0.123 | saracatinib -0.246 | sotrastaurin -0.088 | alvocidib 0.151 | Tubastatin A 0.155 | [8] -0.003 | defactinib 0.236 | rucaparib 0.079 | [9] 0.049 | encorafenib 0.136 | [10] 0.026

PEX14 (UniProt O75381)
inactive: [1] 0.003 | volasertib 0.004 | [2] -0.007 | epoxomicin 0.042 | [3] -0.02 | [4] -0.001 | [5] -0.008 | rosiglitazone 0.007 | [6] -0.017 | [7] 0.056 | saracatinib 0.024 | sotrastaurin 0 | alvocidib 0.02 | Tubastatin A -0.023 | [8] -0.019 | defactinib 0.019 | rucaparib -0.076 | [9] -0.014 | encorafenib 0.022 | [10] -0.003

Additional results.

PDF (UniProt Q9HBH1)
inactive: [1] -0.044 | volasertib -0.083 | [2] -0.004 | epoxomicin -0.032 | [3] -0.002 | [4] -0.023 | [5] 0.032 | rosiglitazone 0.06 | [6] -0.04 | [7] -0.192 | saracatinib 0.053 | sotrastaurin 0.076 | alvocidib 0 | Tubastatin A -0.046 | [8] 0.011 | defactinib -0.04 | rucaparib 0.015 | [9] -0.098 | encorafenib -0.005 | [10] 0.044

PBXIP1 (UniProt Q96AQ6)
inactive: [1] 0.02 | volasertib -0.025 | [2] 0.015 | epoxomicin 0.022 | [3] -0.011 | [4] 0.021 | [5] -0.046 | rosiglitazone 0.021 | [6] -0.016 | [7] 0.012 | saracatinib 0.016 | sotrastaurin -0.029 | alvocidib 0.025 | Tubastatin A 0.012 | [8] 0.005 | defactinib 0.026 | rucaparib 0.05 | [9] -0.091 | encorafenib -0.009 | [10] -0.006

PAK1IP1 (UniProt Q9NWT1)
inactive: [1] 0.304 | volasertib 0.53 | [2] -0.039 | epoxomicin -0.37 | [3] 0.037 | [4] 0.31 | [5] -0.199 | rosiglitazone -0.193 | [6] 0.321 | [7] 0.455 | saracatinib -0.061 | sotrastaurin 0.077 | alvocidib 0.389 | Tubastatin A 0.103 | [8] 0.027 | defactinib 0.529 | rucaparib 0.35 | [9] 0.104 | encorafenib 0.162 | [10] 0.023

PCMT1 isoform 2 (UniProt P22061)
inactive: [1] -0.004 | volasertib 0.057 | [2] 0.03 | epoxomicin -0.006 | [3] 0.022 | [4] -0.042 | [5] 0.027 | rosiglitazone 0.025 | [6] -0.074 | [7] 0 | saracatinib -0.002 | sotrastaurin -0.026 | alvocidib -0.046 | Tubastatin A -0.027 | [8] 0.026 | defactinib -0.026 | rucaparib 0.011 | [9] 0.025 | encorafenib -0.027 | [10] -0.009

PDIA3 (UniProt H7BZJ3)
inactive: [1] -0.006 | volasertib 0.018 | [2] 0.003 | epoxomicin 0 | [3] 0.046 | [4] -0.234 | [5] -0.102 | rosiglitazone -0.049 | [6] 0.129 | [7] 0.073 | saracatinib 0.056 | sotrastaurin 0.062 | alvocidib 0.045 | Tubastatin A 0.018 | [8] -0.069 | defactinib 0.099 | rucaparib -0.022 | [9] -0.082 | encorafenib 0.047 | [10] -0.043

PARVB (UniProt Q9HBI1)
inactive: [1] 0.071 | volasertib 0.056 | [2] 0.073 | epoxomicin 0.03 | [3] 0.068 | [4] -0.061 | [5] 0.019 | rosiglitazone 0.081 | [6] -0.023 | [7] -0.156 | saracatinib -0.023 | sotrastaurin -0.027 | alvocidib -0.127 | Tubastatin A 0.046 | [8] -0.072 | defactinib -0.053 | rucaparib -0.032 | [9] 0.084 | encorafenib 0.031 | [10] 0

PASK (UniProt Q96RG2)
inactive: [1] 0.035 | volasertib -0.111 | [2] -0.015 | epoxomicin 0.01 | [3] 0.017 | [4] 0 | [5] 0.017 | rosiglitazone 0.1 | [6] 0.068 | [7] -0.033 | saracatinib 0.082 | sotrastaurin 0.039 | alvocidib -0.022 | Tubastatin A 0.022 | [8] 0.045 | defactinib -0.078 | rucaparib 0.024 | [9] -0.116 | encorafenib 0.052 | [10] 0.029

PAIP1 (UniProt Q9H074)
inactive: [1] 0.048 | volasertib -0.097 | [2] 0.046 | epoxomicin 0.012 | [3] 0.048 | [4] -0.04 | [5] -0.02 | rosiglitazone 0 | [6] -0.066 | [7] -0.046 | saracatinib 0.039 | sotrastaurin -0.006 | alvocidib -0.04 | Tubastatin A 0.003 | [8] 0.021 | defactinib -0.027 | rucaparib -0.01 | [9] -0.017 | encorafenib -0.044 | [10] 0.022

PAGE1 (UniProt O75459)
inactive: [1] -0.025 | volasertib 0.163 | [2] -0.041 | epoxomicin 0.058 | [3] 0.046 | [4] 0.019 | [5] -0.058 | rosiglitazone -0.016 | [6] -0.002 | [7] -0.017 | saracatinib 0.057 | sotrastaurin 0.144 | alvocidib 0.12 | Tubastatin A -0.019 | [8] -0.018 | defactinib 0.04 | rucaparib -0.04 | [9] -0.042 | encorafenib -0.098 | [10] 0.143
